Reference: paper PMC11059317
Results are given in words; binding and its absence hold for the method and conditions named. In cells and extracts the contact can be indirect. A yes stands for co-enrichment or nearness to the bait. Other partners may have been found. Tags and fused reporters may be left off the sequences shown.

Chains of the proteins cited; added tags and fusions are not shown. Lines headed by an entry give the natural chain unless they say otherwise; changes in a name come on top. Residues count along the entry.
UniProt B5THE2: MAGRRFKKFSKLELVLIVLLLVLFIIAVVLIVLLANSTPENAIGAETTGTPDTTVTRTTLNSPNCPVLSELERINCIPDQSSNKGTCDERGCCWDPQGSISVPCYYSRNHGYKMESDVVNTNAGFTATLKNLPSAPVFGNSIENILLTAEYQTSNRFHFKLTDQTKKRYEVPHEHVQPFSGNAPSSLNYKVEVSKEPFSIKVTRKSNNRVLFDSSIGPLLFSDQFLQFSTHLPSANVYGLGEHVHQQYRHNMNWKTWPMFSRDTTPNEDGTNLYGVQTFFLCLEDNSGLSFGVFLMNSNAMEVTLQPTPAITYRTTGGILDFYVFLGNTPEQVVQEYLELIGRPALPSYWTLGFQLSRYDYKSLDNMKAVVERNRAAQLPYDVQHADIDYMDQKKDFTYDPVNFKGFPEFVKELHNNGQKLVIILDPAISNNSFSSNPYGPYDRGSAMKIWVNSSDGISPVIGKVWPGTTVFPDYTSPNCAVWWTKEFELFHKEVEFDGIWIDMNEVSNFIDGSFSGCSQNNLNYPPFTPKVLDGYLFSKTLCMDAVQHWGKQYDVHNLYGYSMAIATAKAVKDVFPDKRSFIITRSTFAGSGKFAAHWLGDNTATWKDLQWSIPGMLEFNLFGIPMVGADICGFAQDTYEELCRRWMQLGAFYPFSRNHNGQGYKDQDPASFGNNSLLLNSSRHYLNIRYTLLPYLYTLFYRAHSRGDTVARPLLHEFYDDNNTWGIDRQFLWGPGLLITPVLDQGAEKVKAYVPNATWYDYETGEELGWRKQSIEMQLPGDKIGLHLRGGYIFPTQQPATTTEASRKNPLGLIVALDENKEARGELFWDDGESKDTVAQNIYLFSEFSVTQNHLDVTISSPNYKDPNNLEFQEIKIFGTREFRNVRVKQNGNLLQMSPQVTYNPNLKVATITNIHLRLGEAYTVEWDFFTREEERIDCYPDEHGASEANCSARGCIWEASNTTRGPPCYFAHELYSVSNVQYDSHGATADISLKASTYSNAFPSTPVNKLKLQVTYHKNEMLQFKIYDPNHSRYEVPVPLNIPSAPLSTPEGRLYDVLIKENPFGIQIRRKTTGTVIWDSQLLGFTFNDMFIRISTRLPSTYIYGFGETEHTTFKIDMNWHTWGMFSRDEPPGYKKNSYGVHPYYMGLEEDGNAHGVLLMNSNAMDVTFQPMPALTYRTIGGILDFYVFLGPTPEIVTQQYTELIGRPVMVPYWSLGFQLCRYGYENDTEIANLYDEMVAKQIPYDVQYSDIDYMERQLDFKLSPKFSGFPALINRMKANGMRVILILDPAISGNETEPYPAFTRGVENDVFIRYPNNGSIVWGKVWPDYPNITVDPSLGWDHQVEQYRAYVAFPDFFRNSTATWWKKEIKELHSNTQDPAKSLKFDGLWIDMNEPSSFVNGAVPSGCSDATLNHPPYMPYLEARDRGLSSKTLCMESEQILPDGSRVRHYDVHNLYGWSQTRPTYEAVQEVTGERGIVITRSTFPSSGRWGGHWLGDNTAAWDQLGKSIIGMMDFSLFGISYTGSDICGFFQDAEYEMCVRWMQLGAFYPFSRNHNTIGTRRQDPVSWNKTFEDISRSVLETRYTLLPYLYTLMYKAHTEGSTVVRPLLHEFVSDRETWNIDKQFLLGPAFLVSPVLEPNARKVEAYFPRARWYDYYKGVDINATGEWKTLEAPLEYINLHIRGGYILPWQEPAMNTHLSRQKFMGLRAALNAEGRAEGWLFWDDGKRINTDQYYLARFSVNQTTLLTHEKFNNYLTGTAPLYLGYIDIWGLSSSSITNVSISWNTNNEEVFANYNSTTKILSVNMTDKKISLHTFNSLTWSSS
UniProt P02768, residues 25-609: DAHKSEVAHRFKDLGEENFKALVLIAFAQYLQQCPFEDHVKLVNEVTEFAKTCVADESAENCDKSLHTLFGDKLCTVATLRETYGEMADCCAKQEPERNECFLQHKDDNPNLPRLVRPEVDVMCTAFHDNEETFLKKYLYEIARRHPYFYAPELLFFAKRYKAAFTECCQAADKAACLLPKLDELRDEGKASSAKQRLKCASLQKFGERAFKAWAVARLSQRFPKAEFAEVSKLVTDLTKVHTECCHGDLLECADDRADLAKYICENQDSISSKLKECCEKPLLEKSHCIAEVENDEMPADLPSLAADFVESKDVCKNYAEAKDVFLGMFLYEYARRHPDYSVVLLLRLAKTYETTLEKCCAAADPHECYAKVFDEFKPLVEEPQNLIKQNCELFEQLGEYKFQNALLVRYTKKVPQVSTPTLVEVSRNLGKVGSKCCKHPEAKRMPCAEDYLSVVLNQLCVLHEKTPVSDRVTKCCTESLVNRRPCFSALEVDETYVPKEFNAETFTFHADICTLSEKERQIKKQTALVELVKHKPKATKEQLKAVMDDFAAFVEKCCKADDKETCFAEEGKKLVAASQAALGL
UniProt P07724, residues 25-608: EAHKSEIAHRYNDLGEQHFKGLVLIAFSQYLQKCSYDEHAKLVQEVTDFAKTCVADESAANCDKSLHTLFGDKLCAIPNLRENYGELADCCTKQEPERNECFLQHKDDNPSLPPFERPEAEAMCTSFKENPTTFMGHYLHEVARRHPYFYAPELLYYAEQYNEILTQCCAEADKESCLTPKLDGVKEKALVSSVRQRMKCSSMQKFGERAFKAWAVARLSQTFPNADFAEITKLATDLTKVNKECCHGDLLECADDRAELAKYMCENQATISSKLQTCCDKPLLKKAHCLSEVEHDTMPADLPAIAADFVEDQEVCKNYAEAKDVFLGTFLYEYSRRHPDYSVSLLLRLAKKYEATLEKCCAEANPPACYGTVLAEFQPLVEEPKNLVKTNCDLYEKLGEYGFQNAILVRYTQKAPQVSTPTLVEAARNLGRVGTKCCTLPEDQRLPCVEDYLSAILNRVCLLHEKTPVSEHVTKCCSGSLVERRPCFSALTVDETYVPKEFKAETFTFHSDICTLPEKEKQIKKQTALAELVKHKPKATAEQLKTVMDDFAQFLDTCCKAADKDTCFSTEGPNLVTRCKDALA

B1: human alpha-2-macroglobulin (protein, UniProt P01023 24-1474)
chain: SVSGKPQYMVLVPSLLHTETTEKGCVLLSYLNETVTVSASLESVRGNRSLFTDLEAENDVLHCVAFAVPKSSSNEEVMFLTVQVKGPTQEFKKRTTVMVKNEDSLVFVQTDKSIYKPGQTVKFRVVSMDENFHPLNELIPLVYIQDPKGNRIAQWQSFQLEGGLKQFSFPLSSEPFQGSYKVVVQKKSGGRTEHPFTVEEFVLPKFEVQVTVPKIITILEEEMNVSVCGLYTYGKPVPGHVTVSICRKYSDASDCHGEDSQAFCEKFSGQLNSHGCFYQQVKTKVFQLKRKEYEMKLHTEAQIQEEGTVVELTGRQSSEITRTITKLSFVKVDSHFRQGIPFFGQVRLVDGKGVPIPNKVIFIRGNEANYYSNATTDEHGLVQFSINTTNVMGTSLTVRVNYKDRSPCYGYQWVSEEHEEAHHTAYLVFSPSKSFVHLEPMSHELPCGHTQTVQAHYILNGGTLLGLKKLSFYYLIMAKGGIVRTGTHGLLVKQEDMKGHFSISIPVKSDIAPVARLLIYAVLPTGDVIGDSAKYDVENCLANKVDLSFSPSQSLPASHAHLRVTAAPQSVCALRAVDQSVLLMKPDAELSASSVYNLLPEKDLTGFPGPLNDQDNEDCINRHNVYINGITYTPVSSTNEKDMYSFLEDMGLKAFTNSKIRKPKMCPQLQQYEMHGPEGLRVGFYESDVMGRGHARLVHVEEPHTETVRKYFPETWIWDLVVVNSAGVAEVGVTVPDTITEWKAGAFCLSEDAGLGISSTASLRAFQPFFVELTMPYSVIRGEAFTLKATVLNYLPKCIRVSVQLEASPAFLAVPVEKEQAPHCICANGRQTVSWAVTPKSLGNVNFTVSAEALESQELCGTEVPSVPEHGRKDTVIKPLLVEPEGLEKETTFNSLLCPSGGEVSEELSLKLPPNVVEESARASVSVLGDILGSAMQNTQNLLQMPYGCGEQNMVLFAPNIYVLDYLNETQQLTPEIKSKAIGYLNTGYQRQLNYKHYDGSYSTFGERYGRNQGNTWLTAFVLKTFAQARAYIFIDEAHITQALIWLSQRQKDNGCFRSSGSLLNNAIKGGVEDEVTLSAYITIALLEIPLTVTHPVVRNALFCLESAWKTAQEGDHGSHVYTKALLAYAFALAGNQDKRKEVLKSLNEEAVKKDNSVHWERPQKPKAPVGHFYEPQAPSAEVEMTSYVLLAYLTAQPAPTSEDLTSATNIVKWITKQQNAQGGFSSTQDTVVALHALSKYGAATFTRTGKAAQVTIQSSGTFSSKFQVDNNNRLLLQQVSLPELPGEYSMKVTGEGCVYLQTSLKYNILPEKEEFPFALGVQTLPQTCDEPKAHTSFQISLSVSYTGSRSASNMAIVDVKMVSGFIPLKPTVKMLERSNHVSRTEVSSNHVLIYLDKVSNQTLSLFFTVLQDVPVRDLKPAIVKVYDYYETDEFAIAEYNAPCSKDLGNA
B2: mouse alpha-2-macroglobulin (protein, UniProt Q6GQT1 33-1474)
chain: PQKPIYMVMVPSLLHAGTPEKGCLLFNHLNETVTVKVSMESVRGNQSLFTDLVVDKDLFHCASFIVPQSSSNEVMFLTVQVKGPTHEFRRRSTVLIKTKESLVFAQTDKPIYKPGQMVRFRVVSLDENFHPLNELIPLLYIQDSKKNRIAQWQNFRLEGGLKQLSFPLSSEPTQGSYKVVIRTESGRTVEHPFSVKEFVLPKFEVKVAVPETITILEEEMNVSVCGIYTYGKPVPGHVTVNICRKYSNPSSCFGEESLAFCEKFSQQLDGRGCFSQLVKTKSFQLKRQEYEMQLDVNAKIQEEGTGVEETGKGLTKITRTITKLSFVNVDTHFRQGIPFVGQVLLVDGRGTPIPYEMIFIGADEANQNINTTTDKNGLARFSINTDDIMGTSLTVRAKYKDSNVCYGFRWLTEENVEAWHTANAVFSPSRSFVHLESLPYKLRCEQTLAVQAHYILNDEAVLERKELVFYYLMMAKGGIVRAGTHVLPVTQGHKKGHFSILISMETDLAPVARLVLYTILPNGEVVGDTVKYEIEKCLANKVDLVFHPNIGLPATRAFLSVMASPQSLCGLRAVDQSVLLTKPEAELSASLVYDLLPVKDLTGFPKGVNQQEEDTNGCLKQNDTYINGILYSPVQNTNEEDMYGFLKDMGLKVFTNLNIRKPKVCERLGVNKIPAAYHLVSQGHMDAFLESSESPTETTRSYFPETWIWDLVIVDSTGVAEMEVTVPDTITEWKAGAFCLSNDTGLGLSPVIDFQAFQPFFVDLTMPYSVIRGEAFTLKATVLNYLQTCIRVGVQLEASPDFLATPEEKEQKSHCICMNERHTMSWAVIPKSLGNVNFTVSAEALDSKELCRNEVPVVPERGKKDTIIKSLLVEPEGLENEVTFNSLLCPTGAEVSEQISLKLPSDVVEESARASVTVLGDILGSAMQNTQDLLKMPYGCGEQNMVLFAPNIYVLDYLNETEQLTQEIKTKAITYLNTGYQRQLNYKHRDGSYSTFGDKPGRSHANTWLTAFVLKSFAQARRYIFIDESHITQALTWLSQQQKDNGCFRSSGSLLNNAMKGGVEDEVTLSAYITIALLEMSLPVTHPVVRNALFCLDTAWKSARRGASGNHVYTKALLAYAFALAGNQDTKKEILKSLDEEAVKEDNSVHWTRAQKPRVPADLWYQPQAPSAEVEMTAYVLLAYLTTELVPTREDLTAAMLIVKWLTKQQNSHGGFSSTQDTVVALHALSKYGAATFTRAKKAAHVTIQSSGAFYTKFQVNNDNQLLLQRVTLPTVPGDYTAKVAGEGCVYLQTSLKYSVLPREKEFPFALVVQTLPGTCEDLKAHTTFQISLNISYIGSRSDSNMAIADVKMVSGFIPLKPTVKMLERSVHVSRTEVSNNHVLIYLDKVSNQMLTLFFMVQQDIPVRDLKPAIVKVYDYYEKDEFAVAKYSAPCSAGYGNA
B3: mouse coagulation factor 13B (protein, UniProt Q07968 22-669)
chain: EEKQCDFPTVENGRIAQYYYTFKSFYFPMSVDKKLSFFCLAGYATESGKQEEQIRCTAEGWSPNPRCYKKCLKPDLRNGYVSNDKVLYKLQERMSYGCSSGYKTTGGKDEEVVHCLSAGWSSQPSCRKEQETCLAPELEHGNYSTTQRTFKVKDIVAYTCTAGYYTTTGKQTGEAECQANGWSLTPQCNKLMCSSLRLIENGYFHPVKQTYEEGDVVQFFCHENYYLSGSDLIQCYNFGWYPESPICEGRRNRCPPPPVPLNSKIQPHSTTYRHGERVHIECELNFVIQGSEELLCENGKWTEPPKCIEEKEKVACEQPPSVENGVAHPHSEIYYSGDKVTYRCGGGYSLRGSSTITCNRGRWTLPPECVENIENCKPPPDIANGVVVDGLLASYTTGSSVEYRCNEYYLLKGSETSRCEQGAWSSPPVCLEPCTIDVDHMNRNNIQLKWKYEGKILHGDLIDFVCKQGYNLSPSIPLSEISAQCNRGDVRYPMCIRKESKGMCASPPVIRNGDIVSSAARTYENGSSVEYRCFDNHFLQGSQNVYCVDGVWTTPPSCLEPCTLSFVEMDKNYLQLKWNFDNRPLILHGEYIEFMCKRDAYISETSIAGSVLRVQCDRGRLKYPKCTPRDRRLSFQEALRTRRQMEKR
B4: mouse C4b-binding protein (protein, UniProt P08607 57-469)
chain: KCGPPPAIPNALPASDVNRTDFESHTTLKYECLPGYGRGISRMMVYCKPSGEWEISVSCAKKHCRNPGYLDNGYVNGETITFGSQIEFSCQEGFILVGSSTSSCEVRGKGVAWSNPFPECVIVKCGPPPDISNGKHSGTEDFYPYNHGISYTCDPGFRLVGSPFIGCTVVNKTVPVWSSSPPTCEKIICSQPNILHGVIVSGYKATYTHRDSVRLACLNGTVLRGRHVIECQGNGNWSSLPTCEFDCDLPPAIVNGYYTSMVYSKITLVTYECDKGYRLVGKAIISCSFSKWKGTAPQCKALCQKPEVGNGTLSDEKDQYVESENVTIQCDSGFAMLGSQSISCSESGTWYPEVPRCEQEASEDLKPALTGNKTMQYVPNSHDVKMALEIYKLTLEVELLQLQIQKEKHTEAH

Key:
[1] = molecular target: T1, Streptococcus pyogenes M1 protein (amino acids 42-484), TAP-tagged (Streptococcus pyogenes) (UniProt Q99XV0); assay: affinity purification with mass spectrometry; 10 ug TAP-tagged M1 on Strep-Tactin Sepharose beads; pooled BALB/c mouse plasma, 37 C, 800 rpm, 1 h; washed with ice-cold PBS pH 7.4; eluted with 5 mM biotin; DDA- and DIA-MS; hits filtered against sfGFP bait; only the target purified
T1 sequence: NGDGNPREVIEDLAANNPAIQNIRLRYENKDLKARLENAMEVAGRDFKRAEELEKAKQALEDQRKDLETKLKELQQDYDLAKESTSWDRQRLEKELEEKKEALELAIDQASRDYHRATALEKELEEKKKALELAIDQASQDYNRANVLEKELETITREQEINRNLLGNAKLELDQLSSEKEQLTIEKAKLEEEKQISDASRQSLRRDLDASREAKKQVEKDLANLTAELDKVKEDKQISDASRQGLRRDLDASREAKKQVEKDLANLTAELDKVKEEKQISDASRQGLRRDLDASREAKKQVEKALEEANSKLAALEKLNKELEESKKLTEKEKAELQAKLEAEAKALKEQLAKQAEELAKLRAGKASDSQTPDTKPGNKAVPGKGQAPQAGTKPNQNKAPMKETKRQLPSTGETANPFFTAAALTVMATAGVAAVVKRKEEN

[2] = molecular target: T1, Streptococcus pyogenes M1 protein (amino acids 42-484), TAP-tagged (Streptococcus pyogenes); assay: affinity purification with mass spectrometry; 10 ug TAP-tagged M1 on Strep-Tactin Sepharose beads; pooled human plasma, 37 C, 800 rpm, 1 h; washed with ice-cold PBS pH 7.4; eluted with 5 mM biotin; DDA- and DIA-MS; hits filtered against sfGFP bait; only the target purified

Molecule | binding [1] | binding [2]
mouse fibulin | binds | 
human complement system C4b-binding protein |  | binds
human haptoglobin |  | binds
mouse maltase-glucoamylase (from UniProt B5THE2) | binds | 
mouse alpha-1 antitrypsin (A1AT1-6) | binds | 
human albumin (from UniProt P02768 25-609) |  | binds
human ficolin |  | binds
mouse albumin (from UniProt P07724 25-608) | binds | 
B1 |  | binds
B2 | binds | 
B3 | binds | 
B4 | binds | 
